Test results as given in the supplement of paper PMC8728848.
The list shows a part of the results.

Experiments:
Assay in all cases: glycan array binding signal (z-score within array); higher = stronger binding
Conditions in all cases: glycan notation: IUPAC condensed, linker removed
[1] = target: GlcNAc(b1-3)Gal(b1-4)GlcNAc(b1-3)GalNAc
Procedure, shortened: (§1)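 Columns mapping to the same glycan were averaged after glycan names were converted to IUPAC-condensed notation. The data come from 3228 arrays in the Consortium for Functional Glycomics database, limited to those with an available protein sequence. Binding is reported as a within-array Z-score averaged across arrays of one protein sequence and across linkers.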

[2] = target: GlcNAc(b1-3)Gal(b1-4)GlcNAc(b1-3)[GlcNAc(b1-3)Gal(b1-4)GlcNAc(b1-3)]GalNAc
Procedure, shortened: as §1

[3] = target: GlcNAc(b1-3)Gal(b1-4)GlcNAc(b1-6)[Gal(b1-3)]GalNAc
Procedure, shortened: as §1

[4] = target: GlcNAc(b1-3)Gal(b1-4)GlcNAc(b1-6)[GlcNAc(b1-3)Gal(b1-3)]GalNAc
Procedure, shortened: as §1

[5] = target: GlcNAc(b1-3)Gal(b1-4)GlcNAc(b1-6)[GlcNAc(b1-3)]Gal(b1-4)GlcNAc
Procedure, shortened: as §1

GlcNAc(b1-3)GalNAc = target: GlcNAc(b1-3)GalNAc
Procedure, shortened: as §1

GlcNAc(b1-3)Man = target: GlcNAc(b1-3)Man
Procedure, shortened: as §1

[6] = target: GlcNAc(b1-3)[GlcNAc(b1-4)][GlcNAc(b1-6)]GlcNAc
Procedure, shortened: as §1

[7] = target: GlcNAc(b1-3)[GlcNAc(b1-6)]Gal(b1-4)GlcNAc
Procedure, shortened: as §1

[8] = target: GlcNAc(b1-3)[GlcNAc(b1-6)]GalNAc
Procedure, shortened: as §1

[9] = target: GlcNAc(b1-4)Gal(b1-4)GlcNAc
Procedure, shortened: as §1

GlcNAc(b1-4)GlcNAc = target: GlcNAc(b1-4)GlcNAc
Procedure, shortened: as §1

[10] = target: GlcNAc(b1-4)GlcNAc(b1-4)GlcNAc
Procedure, shortened: as §1

[11] = target: GlcNAc(b1-4)GlcNAc(b1-4)GlcNAc(b1-4)GlcNAc(b1-4)GlcNAc
Procedure, shortened: as §1

[12] = target: GlcNAc(b1-4)GlcNAc(b1-4)GlcNAc(b1-4)GlcNAc(b1-4)GlcNAc(b1-4)GlcNAc
Procedure, shortened: as §1

[13] = target: GlcNAc(b1-4)[GlcNAc(b1-6)]GalNAc
Procedure, shortened: as §1

[14] = target: GlcNAc(b1-6)Gal(b1-4)GlcNAc
Procedure, shortened: as §1

GlcNAc(b1-6)GalNAc = target: GlcNAc(b1-6)GalNAc
Procedure, shortened: as §1

[15] = target: GlcNAc6S(b1-3)Gal(b1-4)GlcNAc
Procedure, shortened: as §1

Kdn(a2-3)Gal(b1-3)GalNAc = target: Kdn(a2-3)Gal(b1-3)GalNAc
Procedure, shortened: as §1

Kdn(a2-3)Gal(b1-3)GlcNAc = target: Kdn(a2-3)Gal(b1-3)GlcNAc
Procedure, shortened: as §1

Kdn(a2-3)Gal(b1-4)Glc = target: Kdn(a2-3)Gal(b1-4)Glc
Procedure, shortened: as §1

Kdn(a2-3)Gal(b1-4)GlcNAc = target: Kdn(a2-3)Gal(b1-4)GlcNAc
Procedure, shortened: as §1

[16] = target: Kdn(a2-3)Gal(b1-4)[Fuc(a1-3)]GlcNAc
Procedure, shortened: as §1

Kdn(a2-6)Gal(b1-4)GlcNAc = target: Kdn(a2-6)Gal(b1-4)GlcNAc
Procedure, shortened: as §1

[17] = target: Man(a1-2)Man(a1-2)Man(a1-3)Man
Procedure, shortened: as §1

[18] = target: Man(a1-2)Man(a1-2)Man(a1-6)[Man(a1-3)]Man
Procedure, shortened: as §1

Man(a1-2)Man(a1-3)Man = target: Man(a1-2)Man(a1-3)Man
Procedure, shortened: as §1

[19] = target: Man(a1-2)Man(a1-3)[Man(a1-2)Man(a1-6)]Man
Procedure, shortened: as §1

[20] = target: Man(a1-2)Man(a1-3)[Man(a1-2)Man(a1-6)]Man(a1-6)[Man(a1-2)Man(a1-2)Man(a1-3)]Man
Procedure, shortened: as §1

B1: Blon2355mut (Bifidobacterium longum) (protein)
chain: MVQEPTLEWHVIPEPTNVEPLVGTCSLPLSGTVVEQRGADDAEAVFARQLVDDIKRVCGGRWQVASGEVQREVTLRTSPSLDDWSYVLEVSPDGVVITGSGFEGVRDGVQTLRQIIRQIGLTIPCMVIRDRPAFSTRGYYLDVTRGRVPSMAWLKSWVDRLCFYKYNQFQLYIEHTFQFNGLSEVWRGADPLTSSDILELDSYCAARGIELVPSVSTFGHHYTALRTRQLRDLGEFPEDADRPFSLIERMTHHTLNITDERSYEFSTSLIDELMPLFRSRKFNICANETFDLGKGRSKQESAKRGVGAMYADFVERLCRHVDDRGHDVMVWADVALEHPEIIDTLPKNITWLNWQYEPNVDDGTTAALADAGATQMVCPAVWCWNALIPRIDDAWNNITRMARHGRAHDVSGMLVTDWGDFGHVNDPRMSVPGMIFGAQQSWNPDAELSEVDMLSRISTIEYGDHTGSVVGALRGASAKGGFSWSDLVTYLELDDGRGGCNTEIVRVMGCLEAYRNDLPQSGQARLADARVSMLRTLRDSILAGRELNGKLDDAAKDITQLLRVAGDPSSAAVWSLAIDGQRLLNRVGLALLAAHGVVRQDEAGIDAAKLADELECWTEQYSRLWHEVSRQSELARIQHVVWRAADVLRSI
- glycan array binding signal (z-score) [1]: 2.04
- glycan array binding signal (z-score) [2]: 3.84
- glycan array binding signal (z-score) [3]: 1.67
- glycan array binding signal (z-score) [4]: -0.208
- glycan array binding signal (z-score) [5]: -0.18
- glycan array binding signal (z-score) (GlcNAc(b1-3)GalNAc): -0.629
- glycan array binding signal (z-score) (GlcNAc(b1-3)Man): -0.814
- glycan array binding signal (z-score) [6]: -0.175
- glycan array binding signal (z-score) [7]: -0.106
- glycan array binding signal (z-score) [8]: -0.847
- glycan array binding signal (z-score) [9]: -0.202
- glycan array binding signal (z-score) (GlcNAc(b1-4)GlcNAc): 0.047
- glycan array binding signal (z-score) [10]: -0.51
- glycan array binding signal (z-score) [11]: -0.769
- glycan array binding signal (z-score) [12]: 0.29
- glycan array binding signal (z-score) [13]: 0.011
- glycan array binding signal (z-score) [14]: 1.29
- glycan array binding signal (z-score) (GlcNAc(b1-6)GalNAc): -0.103
- glycan array binding signal (z-score) [15]: -0.49
- glycan array binding signal (z-score) (Kdn(a2-3)Gal(b1-3)GalNAc): 1.24
- glycan array binding signal (z-score) (Kdn(a2-3)Gal(b1-3)GlcNAc): 1.19
- glycan array binding signal (z-score) (Kdn(a2-3)Gal(b1-4)Glc): -0.358
- glycan array binding signal (z-score) (Kdn(a2-3)Gal(b1-4)GlcNAc): -0.044
- glycan array binding signal (z-score) [16]: -0.483
- glycan array binding signal (z-score) (Kdn(a2-6)Gal(b1-4)GlcNAc): 1.48
- glycan array binding signal (z-score) [17]: -0.041
- glycan array binding signal (z-score) [18]: -0.483
- glycan array binding signal (z-score) (Man(a1-2)Man(a1-3)Man): -1.18
- glycan array binding signal (z-score) [19]: -0.379
- glycan array binding signal (z-score) [20]: -0.533
